Test results from paper PMC8450433.
Results are given in words; binding and its absence hold for the method and conditions named. Binding seen in cells or lysates may run through a third protein. Some entries that bind do so weakly or less than the wild type.

The chains behind the UniProt entries cited, without tags or fusion partners. Residues count along the entry.
UniProt P05067, residues 672-713: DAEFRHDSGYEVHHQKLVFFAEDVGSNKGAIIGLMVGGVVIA

Target: β-amyloid peptide (Aβ42) (UniProt P05067)
Assay: co-IP; APP/PS1 mouse brain lysate (6-month-old mice, 4 mg protein, pre-cleared with protein G); IP with the anti-Aβ antibody MOAB2 (1:200) and protein G beads overnight at 4°C; western blot for MOAB2 (Aβ42) and Gpc4

- binding: binds
B1: glypican 4 (protein, UniProt P51655 19-529)
chain: SLLAAELKSKSCSEVRRLYVSKGFNKNDAPLYEINGDHLKICPQDYTCCSQEMEEKYSLQSKDDFKTVVSEQCNHLQAIFASRYKKFDEFFKELLENAEKSLNDMFVKTYGHLYMQNSELFKDLFVELKRYYVAGNVNLEEMLNDFWARLLERMFRLVNSQYHFTDEYLECVSKYTEQLKPFGDVPRKLKLQVTRAFVAARTFAQGLAVARDVVSKVSVVNPTAQCTHALLKMIYCSHCRGLVTVKPCYNYCSNIMRGCLANQGDLDFEWNNFIDAMLMVAERLEGPFNIESVMDPIDVKISDAIMNMQDNSVQVSQKVFQGCGPPKPLPAGRISRSISESAFSARFRPYHPEQRPTTAAGTSLDRLVTDVKEKLKQAKKFWSSLPSTVCNDERMAAGNENEDDCWNGKGKSRYLFAVTGNGLANQGNNPEVQVDTSKPDILILRQIMALRVMTSKMKNAYNGNDVDFFDISDESSGEGSGSGCEYQQCPSEFEYNATDHSGKSANEKADS
